# Reference: the supplement of paper PMC10849652
# Chains of the proteins cited; added tags and fusions are not shown. Lines headed by an entry give the natural chain unless they say otherwise; changes in a name come on top.
# UniProt Q969T7: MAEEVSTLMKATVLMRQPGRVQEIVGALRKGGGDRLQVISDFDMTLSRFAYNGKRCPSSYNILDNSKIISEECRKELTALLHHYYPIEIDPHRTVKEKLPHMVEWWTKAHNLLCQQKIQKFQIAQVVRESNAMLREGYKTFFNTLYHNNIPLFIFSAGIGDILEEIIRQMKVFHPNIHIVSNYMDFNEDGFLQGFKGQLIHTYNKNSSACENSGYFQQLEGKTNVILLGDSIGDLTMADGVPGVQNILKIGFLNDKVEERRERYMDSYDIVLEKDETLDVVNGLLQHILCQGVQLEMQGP
# UniProt Q9BW27: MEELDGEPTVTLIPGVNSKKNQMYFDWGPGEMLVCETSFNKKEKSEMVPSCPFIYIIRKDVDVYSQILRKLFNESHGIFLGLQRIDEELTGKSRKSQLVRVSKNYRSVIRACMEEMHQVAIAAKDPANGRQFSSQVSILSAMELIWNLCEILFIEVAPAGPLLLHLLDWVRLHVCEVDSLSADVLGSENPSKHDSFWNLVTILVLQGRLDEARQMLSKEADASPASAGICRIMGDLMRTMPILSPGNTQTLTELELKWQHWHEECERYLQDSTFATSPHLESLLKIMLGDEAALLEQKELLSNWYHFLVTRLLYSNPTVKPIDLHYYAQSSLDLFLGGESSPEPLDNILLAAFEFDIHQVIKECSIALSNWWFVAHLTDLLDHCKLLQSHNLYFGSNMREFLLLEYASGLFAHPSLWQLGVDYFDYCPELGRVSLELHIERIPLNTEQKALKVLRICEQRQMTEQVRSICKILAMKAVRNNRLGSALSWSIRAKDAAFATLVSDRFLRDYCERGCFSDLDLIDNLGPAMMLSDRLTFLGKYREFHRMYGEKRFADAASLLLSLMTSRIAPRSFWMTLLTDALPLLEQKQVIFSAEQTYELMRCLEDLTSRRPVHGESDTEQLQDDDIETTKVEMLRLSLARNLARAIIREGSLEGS
# UniProt O60890: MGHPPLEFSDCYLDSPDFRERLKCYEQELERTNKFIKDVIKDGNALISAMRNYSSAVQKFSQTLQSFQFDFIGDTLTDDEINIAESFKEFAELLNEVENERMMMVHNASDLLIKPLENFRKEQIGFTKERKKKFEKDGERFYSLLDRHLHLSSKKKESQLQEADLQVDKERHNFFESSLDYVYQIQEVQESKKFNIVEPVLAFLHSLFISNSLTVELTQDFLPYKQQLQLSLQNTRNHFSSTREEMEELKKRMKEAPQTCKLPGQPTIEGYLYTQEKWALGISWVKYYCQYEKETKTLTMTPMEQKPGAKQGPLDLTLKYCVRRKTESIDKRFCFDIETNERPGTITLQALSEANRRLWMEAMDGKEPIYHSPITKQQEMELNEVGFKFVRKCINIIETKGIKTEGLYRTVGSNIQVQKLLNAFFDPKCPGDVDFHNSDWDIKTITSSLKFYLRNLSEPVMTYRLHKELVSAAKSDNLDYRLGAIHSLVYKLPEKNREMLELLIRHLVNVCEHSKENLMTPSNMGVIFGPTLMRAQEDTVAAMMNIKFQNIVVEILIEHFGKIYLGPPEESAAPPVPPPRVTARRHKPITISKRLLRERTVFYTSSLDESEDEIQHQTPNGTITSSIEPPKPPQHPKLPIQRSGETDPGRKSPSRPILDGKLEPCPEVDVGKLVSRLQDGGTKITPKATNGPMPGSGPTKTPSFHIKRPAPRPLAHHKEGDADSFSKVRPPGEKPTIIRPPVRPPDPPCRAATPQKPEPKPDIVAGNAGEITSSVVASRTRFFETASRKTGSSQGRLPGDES
# UniProt Q96D31, whole entry, looked up: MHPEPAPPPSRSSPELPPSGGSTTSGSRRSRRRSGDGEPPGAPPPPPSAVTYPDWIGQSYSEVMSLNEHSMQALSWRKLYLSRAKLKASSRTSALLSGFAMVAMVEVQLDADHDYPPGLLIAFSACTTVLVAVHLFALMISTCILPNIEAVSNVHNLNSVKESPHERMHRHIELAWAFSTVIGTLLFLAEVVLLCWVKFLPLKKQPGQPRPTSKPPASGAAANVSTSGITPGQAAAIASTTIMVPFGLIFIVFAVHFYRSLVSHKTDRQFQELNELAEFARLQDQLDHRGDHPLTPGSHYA
# UniProt Q9BRP4: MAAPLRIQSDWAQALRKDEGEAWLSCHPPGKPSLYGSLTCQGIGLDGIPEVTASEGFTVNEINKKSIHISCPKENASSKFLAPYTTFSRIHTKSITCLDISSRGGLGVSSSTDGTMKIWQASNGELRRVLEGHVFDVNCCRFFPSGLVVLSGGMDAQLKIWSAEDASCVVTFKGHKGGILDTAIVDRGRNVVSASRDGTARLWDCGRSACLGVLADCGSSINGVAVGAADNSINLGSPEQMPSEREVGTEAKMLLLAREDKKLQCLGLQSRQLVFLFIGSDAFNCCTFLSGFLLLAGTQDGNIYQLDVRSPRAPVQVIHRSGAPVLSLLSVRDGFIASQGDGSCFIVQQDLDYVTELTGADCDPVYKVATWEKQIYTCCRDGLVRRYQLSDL
# UniProt P49757: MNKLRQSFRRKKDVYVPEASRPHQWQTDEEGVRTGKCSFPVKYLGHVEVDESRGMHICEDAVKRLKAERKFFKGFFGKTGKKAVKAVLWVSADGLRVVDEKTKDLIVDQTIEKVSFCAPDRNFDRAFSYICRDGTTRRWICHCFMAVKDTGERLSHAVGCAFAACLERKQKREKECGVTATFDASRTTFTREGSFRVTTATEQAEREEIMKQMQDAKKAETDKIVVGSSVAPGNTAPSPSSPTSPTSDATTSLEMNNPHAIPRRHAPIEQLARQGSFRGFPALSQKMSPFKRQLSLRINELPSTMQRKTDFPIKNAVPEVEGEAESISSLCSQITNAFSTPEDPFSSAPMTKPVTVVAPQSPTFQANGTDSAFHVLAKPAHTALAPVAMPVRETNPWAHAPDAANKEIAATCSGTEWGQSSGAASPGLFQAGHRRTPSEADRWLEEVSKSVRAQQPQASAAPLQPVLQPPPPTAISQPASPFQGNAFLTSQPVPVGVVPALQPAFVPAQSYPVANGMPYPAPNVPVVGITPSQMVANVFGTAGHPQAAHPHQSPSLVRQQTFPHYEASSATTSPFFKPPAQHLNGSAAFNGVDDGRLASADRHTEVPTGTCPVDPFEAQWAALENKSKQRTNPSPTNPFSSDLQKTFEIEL
# UniProt P0C024: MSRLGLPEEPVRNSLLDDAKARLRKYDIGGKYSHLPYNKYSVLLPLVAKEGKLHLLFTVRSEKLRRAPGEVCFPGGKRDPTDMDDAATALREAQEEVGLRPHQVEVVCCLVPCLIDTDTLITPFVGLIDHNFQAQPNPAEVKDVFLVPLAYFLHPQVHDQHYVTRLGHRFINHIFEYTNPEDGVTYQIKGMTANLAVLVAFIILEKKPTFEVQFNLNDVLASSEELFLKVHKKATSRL
# UniProt P04181: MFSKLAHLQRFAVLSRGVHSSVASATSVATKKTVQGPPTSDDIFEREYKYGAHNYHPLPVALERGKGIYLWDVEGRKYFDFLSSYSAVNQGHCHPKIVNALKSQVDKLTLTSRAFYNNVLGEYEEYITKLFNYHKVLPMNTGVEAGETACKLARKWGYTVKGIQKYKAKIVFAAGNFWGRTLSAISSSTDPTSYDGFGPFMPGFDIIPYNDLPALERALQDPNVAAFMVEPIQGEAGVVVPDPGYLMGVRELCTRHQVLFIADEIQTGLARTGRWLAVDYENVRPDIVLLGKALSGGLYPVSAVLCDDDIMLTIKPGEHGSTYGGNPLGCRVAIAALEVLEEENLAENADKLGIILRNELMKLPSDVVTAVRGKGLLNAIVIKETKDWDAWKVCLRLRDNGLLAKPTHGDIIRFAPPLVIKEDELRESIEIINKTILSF
# Some of the results follow. Residues, ends and D or L forms follow the SMILES beside them. *: point of attachment. Cbz = O=C(OCc1ccccc1)*
# Columns and labels:
# Test in all cases: log2 fold change, soluble protein after heating vs DMSO (PISA); higher = thermal stabilisation; K562 cells, 10 uM, 30 min; active = over 0.2 and 3.5 SD of the protein, either way, in both replicates (recomputed)
# IRAK-1-4 Inhibitor I = compound: C1COCCN1CCN2C3=CC=CC=C3N=C2NC(=O)C4=CC(=CC=C4)[N+](=O)[O-] [IRAK-1-4 Inhibitor I]
# How it was run: (§1)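 K562 cells at 2×10^6 cells/mL were exposed to 10 μM compound for 30 min, then aliquots were heated for 3 min across 48°C-58°C, pooled, and extracted in PBS containing 0.5% NP-40 at 4°C. The supernatant after 21,000xg for 90 min was taken as soluble protein and measured by TMTpro 16plex LC-MS/MS with channel sums equalised. Thermal stability is reported relative to control samples, with values from duplicates. Fold changes are given on a log2 scale.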
# ibrutinib = compound: C=CC(=O)N1CCC[C@@H](n2nc(-c3ccc(Oc4ccccc4)cc3)c3c(N)ncnc32)C1 [ibrutinib]
# How it was run: as §1
# [1] = compound: CC(=O)c1cnc2ccc(-c3cc(Cl)c(O)c(Cl)c3)nc2c1N[C@H]1CC[C@H](CN(C)C)CC1
# How it was run: as §1
# ralimetinib = compound: CC(C)(C)Cn1c(N)nc2ccc(-c3[nH]c(C(C)(C)C)nc3-c3ccc(F)cc3)nc21 [ralimetinib]
# How it was run: as §1
# [2] = compound: CC(C)C1=C2N=C(C=C(N2N=C1)NCC3=CC=CC=C3)NCCCCCCN
# How it was run: as §1
# [3] = compound: CC(C)C[C@@H](C=O)NC(=O)[C@H](CC(C)C)NC(=O)[C@H](CC(C)C)NC(=O)OCc1ccccc1
# How it was run: as §1
# pinometostat = compound: CC(C)N(C[C@H]1O[C@@H](n2cnc3c(N)ncnc32)[C@H](O)[C@@H]1O)[C@H]1C[C@@H](CCc2nc3cc(C(C)(C)C)ccc3[nH]2)C1 [pinometostat]
# How it was run: as §1
# [4] = compound: CC1=C(C(CC(=O)N1)C2=CC=C(C=C2)C(F)(F)F)C(=O)NC3=C(C=C4C(=C3)C=NN4)F
# How it was run: as §1
# [5] = compound: CC1=C(C2=C(C=C1)C(=O)C3=CC=CC=C3N2CCCN)C
# How it was run: as §1
# [6] = compound: CC1=C(C=C(C=C1)NC(=O)C2=CC(=CC=C2)C(C)(C)C#N)NC3=CC4=C(C=C3)N=CN(C4=O)C
# How it was run: as §1
# [7] = compound: CC1=C(C=C(C=C1)NC(=O)C2=CC(=CC=C2)N(C)C)NC(=O)C3=CC=C(C=C3)O
# How it was run: as §1
# [8] = compound: CC1=CC=C(C=C1)SC2=C3C=C(SC3=CN=C2)C(=O)N
# How it was run: as §1
# [9] = compound: CC1=NC(=CC=C1)C2=C(N=C(N2)C(C)(C)C)C3=CC4=NC=CN=C4C=C3
# How it was run: as §1
# vemurafenib = compound: CCCS(=O)(=O)Nc1ccc(F)c(C(=O)c2c[nH]c3ncc(-c4ccc(Cl)cc4)cc23)c1F [vemurafenib]
# How it was run: as §1
# [10] = compound: CCCS(=O)(=O)Nc1ccc(F)c(C(=O)c2c[nH]c3ncc(Cl)cc23)c1F
# How it was run: as §1
# [11] = compound: CCCc1cc(C)[nH]c(=O)c1CNC(=O)c1cc(-c2ccnc(N3CCN(C)CC3)c2)cc2c1cnn2C(C)C
# How it was run: as §1
# givinostat = compound: CCN(CC)Cc1ccc2cc(COC(=O)Nc3ccc(C(=O)NO)cc3)ccc2c1 [givinostat]
# How it was run: as §1
# barasertib = compound: CCN(CCCOc1ccc2c(Nc3cc(CC(=O)Nc4cccc(F)c4)[nH]n3)ncnc2c1)CCOP(=O)(O)O [barasertib]
# How it was run: as §1
# [12] = compound: CC(C)(O)CC(=O)NCCn1ccc2ncnc(Nc3ccc(Oc4cccc(C(F)(F)F)c4)c(Cl)c3)c21
# How it was run: as §1
# Nexturastat A = compound: CCCCN(Cc1ccc(C(=O)NO)cc1)C(=O)Nc1ccccc1 [Nexturastat A]
# How it was run: as §1
Target,log2 fold change (IRAK-1-4 Inhibitor I),log2 fold change (ibrutinib),log2 fold change [1],log2 fold change (ralimetinib),log2 fold change [2],log2 fold change [3],log2 fold change (pinometostat),log2 fold change [4],log2 fold change [5],log2 fold change [6],log2 fold change [7],log2 fold change [8],log2 fold change [9],log2 fold change (vemurafenib),log2 fold change [10],log2 fold change [11],log2 fold change (givinostat),log2 fold change (barasertib),log2 fold change [12],log2 fold change (Nexturastat A)
NT5C3B (UniProt Q969T7),inactive: 0.03,inactive: 0.055,inactive: -0.022,inactive: -0.015,inactive: -0.061,inactive: -0.073,inactive: -0.039,inactive: 0.021,inactive: 0.033,inactive: 0.157,inactive: -0.101,inactive: 0.132,inactive: 0.031,inactive: 0.026,inactive: 0.055,inactive: 0.018,inactive: 0.014,inactive: 0.031,–,–
NUDT5 (UniProt C9JYY9),inactive: 0.108,inactive: 0.224,inactive: -0.252,–,inactive: 0.092,–,inactive: 0.044,–,inactive: 0.312,inactive: 0.02,–,–,inactive: -0.299,inactive: -0.303,–,–,inactive: -0.003,inactive: -0.032,inactive: 0.137,inactive: 0.264
NUP85 (UniProt Q9BW27),inactive: -0.011,inactive: -0.027,inactive: -0.058,inactive: -0.036,inactive: -0.048,inactive: -0.026,inactive: -0.033,–,inactive: 0.015,inactive: -0.02,inactive: 0.025,inactive: 0.102,inactive: -0.001,inactive: 0.01,inactive: 0.019,inactive: -0.02,inactive: 0.015,inactive: 0.017,inactive: -0.013,inactive: -0.041
OPHN1 (UniProt O60890),inactive: -0.086,inactive: -0.145,inactive: -0.021,inactive: -0.033,inactive: 0.12,inactive: -0.042,inactive: -0.062,–,inactive: 0.069,inactive: -0.146,inactive: -0.029,–,inactive: 0.218,–,–,inactive: -0.018,inactive: 0.049,inactive: -0.037,inactive: -0.146,inactive: -0.12
ORAI1 (UniProt Q96D31),inactive: 0.053,inactive: -0.088,–,inactive: -0.091,inactive: 0.038,inactive: 0.138,inactive: -0.079,inactive: 0.072,inactive: 0.042,–,inactive: 0,inactive: -0.004,inactive: 0.016,inactive: 0.189,inactive: -0.028,inactive: -0.013,inactive: -0.061,inactive: -0.019,inactive: -0.055,inactive: -0.07
PAAF1 (UniProt Q9BRP4),inactive: 0.037,inactive: -0.003,inactive: -0.029,inactive: 0.001,inactive: 0.037,active: -0.28,inactive: -0.026,–,inactive: 0.027,inactive: -0.026,inactive: -0.005,inactive: 0.016,inactive: 0.003,inactive: -0.028,inactive: 0.019,inactive: -0.038,inactive: 0.023,inactive: 0.021,inactive: 0.007,inactive: -0.035
NUMB (UniProt P49757),inactive: 0.008,inactive: -0.05,active: -0.318,inactive: 0.049,inactive: -0.086,inactive: 0.053,inactive: 0.061,–,inactive: 0.079,inactive: -0.006,inactive: 0.018,inactive: -0.067,inactive: -0.046,inactive: 0.026,inactive: -0.002,inactive: 0.004,inactive: 0.02,inactive: -0.01,inactive: -0.062,inactive: 0.09
NUDT7 (UniProt P0C024),inactive: -0.02,inactive: 0.205,–,inactive: -0.52,inactive: 0,inactive: 0.207,inactive: -0.231,–,inactive: 0.039,inactive: 0.016,inactive: -0.021,–,inactive: 0.197,–,–,–,inactive: 0.017,active: 0.666,inactive: -0.467,inactive: 0.014
OAT (UniProt P04181),inactive: 0.044,inactive: -0.006,inactive: -0.044,inactive: -0.053,active: -0.245,inactive: 0.007,inactive: -0.027,–,inactive: -0.007,inactive: 0.087,inactive: 0.014,inactive: 0.02,inactive: 0.042,inactive: 0.011,inactive: -0.023,inactive: -0.011,inactive: 0.045,inactive: 0.061,inactive: -0.113,inactive: -0.01
